# Laboratory results published in the supplement of paper PMC8728848.
# The list shows a part of the results.
# B1: GS13814A-bth-462-26-462 (Bacteroides thetaiotaomicron) (protein)
# chain: DDRDNLMVNDQIGLLHSTYTETEIFRGMDTPYQLFVIKSGKGKQETEVSISVDETVLQSYNTDNGTSIQLLPSDCYTILQPALRLNDSDYRKAFDIKWNADRLSDLLSTGKEYGLPIQMSVVQNFISADDERLKTIIVPTIKEPYLQMDVPGMSPVTDFMPTFGDLNERELFVKIRTNYSNDEDISFQIEVDPQLVIDYNTAHGTAYKMLPESSFTVDNKGVILTGMKETFIKIKYHKKGLIPEEGTYLFGDYVLPLRITSVSKYGISPDAASKLYTVKFQPDPIDKKGWSVIDFNNCCTQDGGWYLNMGWGVESLIDNNPGTQWLCRWDVKEPLPYYFVFDMGKEYTLFRFGFANPVAPAAHVWAGTSKAGYVEASIDNENWVKLKDWTSPKIGEPNVNMDVPATQARYIRFVITDTYPTYDGLRVSLGEVYAWGM
# Experiments:
# Experiment in all cases: glycan array binding signal (z-score within array); higher = stronger binding
# Conditions in all cases: glycan notation: IUPAC condensed, linker removed
# [1] = biological target: GlcNAc(b1-3)Gal(b1-4)GlcNAc(b1-3)Gal(b1-4)GlcNAc(b1-3)GalNAc
# In short: (§1)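 Glycan array binding is given as a within-array Z-score, which can be read as non-binding when negative. The arrays, 3228 of them, came from the Consortium for Functional Glycomics database and were retained only where the protein sequence was available. Z-scores were averaged across arrays of the same protein sequence at different concentrations or buffers and across linkers.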
# [2] = biological target: GlcNAc(b1-3)Gal(b1-4)GlcNAc(b1-3)GalNAc
# In short: as §1
# [3] = biological target: GlcNAc(b1-3)Gal(b1-4)GlcNAc(b1-3)[GlcNAc(b1-3)Gal(b1-4)GlcNAc(b1-3)]GalNAc
# In short: as §1
# [4] = biological target: GlcNAc(b1-3)Gal(b1-4)GlcNAc(b1-6)[Gal(b1-3)]GalNAc
# In short: as §1
# [5] = biological target: GlcNAc(b1-3)Gal(b1-4)GlcNAc(b1-6)[GlcNAc(b1-3)Gal(b1-3)]GalNAc
# In short: as §1
# [6] = biological target: GlcNAc(b1-3)Gal(b1-4)GlcNAc(b1-6)[GlcNAc(b1-3)]Gal(b1-4)GlcNAc
# In short: as §1
# GlcNAc(b1-3)GalNAc = biological target: GlcNAc(b1-3)GalNAc
# In short: as §1
# GlcNAc(b1-3)Man = biological target: GlcNAc(b1-3)Man
# In short: as §1
# [7] = biological target: GlcNAc(b1-3)[GlcNAc(b1-4)][GlcNAc(b1-6)]GlcNAc
# In short: as §1
# [8] = biological target: GlcNAc(b1-3)[GlcNAc(b1-6)]Gal(b1-4)GlcNAc
# In short: as §1
# [9] = biological target: GlcNAc(b1-3)[GlcNAc(b1-6)]GalNAc
# In short: as §1
# [10] = biological target: GlcNAc(b1-4)Gal(b1-4)GlcNAc
# In short: as §1
# GlcNAc(b1-4)GlcNAc = biological target: GlcNAc(b1-4)GlcNAc
# In short: as §1
# [11] = biological target: GlcNAc(b1-4)GlcNAc(b1-4)GlcNAc
# In short: as §1
# [12] = biological target: GlcNAc(b1-4)GlcNAc(b1-4)GlcNAc(b1-4)GlcNAc(b1-4)GlcNAc
# In short: as §1
# [13] = biological target: GlcNAc(b1-4)GlcNAc(b1-4)GlcNAc(b1-4)GlcNAc(b1-4)GlcNAc(b1-4)GlcNAc
# In short: as §1
# [14] = biological target: GlcNAc(b1-4)[GlcNAc(b1-6)]GalNAc
# In short: as §1
# [15] = biological target: GlcNAc(b1-6)Gal(b1-4)GlcNAc
# In short: as §1
# GlcNAc(b1-6)GalNAc = biological target: GlcNAc(b1-6)GalNAc
# In short: as §1
# [16] = biological target: GlcNAc6S(b1-3)Gal(b1-4)GlcNAc
# In short: as §1
# Kdn(a2-3)Gal(b1-3)GalNAc = biological target: Kdn(a2-3)Gal(b1-3)GalNAc
# In short: as §1
# Kdn(a2-3)Gal(b1-3)GlcNAc = biological target: Kdn(a2-3)Gal(b1-3)GlcNAc
# In short: as §1
# Kdn(a2-3)Gal(b1-4)Glc = biological target: Kdn(a2-3)Gal(b1-4)Glc
# In short: as §1
# Kdn(a2-3)Gal(b1-4)GlcNAc = biological target: Kdn(a2-3)Gal(b1-4)GlcNAc
# In short: as §1
# [17] = biological target: Kdn(a2-3)Gal(b1-4)[Fuc(a1-3)]GlcNAc
# In short: as §1
# Kdn(a2-6)Gal(b1-4)GlcNAc = biological target: Kdn(a2-6)Gal(b1-4)GlcNAc
# In short: as §1
# [18] = biological target: Man(a1-2)Man(a1-2)Man(a1-3)Man
# In short: as §1
# [19] = biological target: Man(a1-2)Man(a1-2)Man(a1-6)[Man(a1-3)]Man
# In short: as §1
# Man(a1-2)Man(a1-3)Man = biological target: Man(a1-2)Man(a1-3)Man
# In short: as §1
# [20] = biological target: Man(a1-2)Man(a1-3)[Man(a1-2)Man(a1-6)]Man
# In short: as §1
# [21] = biological target: Man(a1-2)Man(a1-3)[Man(a1-2)Man(a1-6)]Man(a1-6)[Man(a1-2)Man(a1-2)Man(a1-3)]Man
# In short: as §1
# [22] = biological target: Man(a1-2)Man(a1-3)[Man(a1-2)Man(a1-6)]Man(a1-6)[Man(a1-2)Man(a1-2)Man(a1-3)]Man(b1-4)GlcNAc(b1-4)GlcNAc
# In short: as §1
# [23] = biological target: Man(a1-2)Man(a1-3)[Man(a1-6)]Man(a1-6)[Man(a1-2)Man(a1-3)]Man(b1-4)GlcNAc(b1-4)GlcNAc
# In short: as §1
# [24] = biological target: Man(a1-2)Man(a1-6)[Man(a1-3)]Man(a1-6)[Man(a1-2)Man(a1-2)Man(a1-3)]Man
# In short: as §1
# [25] = biological target: Man(a1-2)Man(a1-6)[Man(a1-3)]Man(a1-6)[Man(a1-2)Man(a1-2)Man(a1-3)]Man(b1-4)GlcNAc(b1-4)GlcNAc
# In short: as §1
# Man(a1-3)[Man(a1-6)]Man = biological target: Man(a1-3)[Man(a1-6)]Man
# In short: as §1
# [26] = biological target: Man(a1-3)[Man(a1-6)]Man(a1-6)[Man(a1-2)Man(a1-3)]Man(b1-4)GlcNAc(b1-4)GlcNAc
# In short: as §1
binder,measurement,setting,value
B1,glycan array binding signal (z-score),[1],-0.105
same,glycan array binding signal (z-score),[2],-0.438
same,glycan array binding signal (z-score),[3],-0.126
same,glycan array binding signal (z-score),[4],0.535
same,glycan array binding signal (z-score),[5],0.331
same,glycan array binding signal (z-score),[6],0.262
same,glycan array binding signal (z-score),GlcNAc(b1-3)GalNAc,0.754
same,glycan array binding signal (z-score),GlcNAc(b1-3)Man,0.659
same,glycan array binding signal (z-score),[7],1.62
same,glycan array binding signal (z-score),[8],-0.285
same,glycan array binding signal (z-score),[9],1.5
same,glycan array binding signal (z-score),[10],-0.159
same,glycan array binding signal (z-score),GlcNAc(b1-4)GlcNAc,0.8
same,glycan array binding signal (z-score),[11],-1.12
same,glycan array binding signal (z-score),[12],0.117
same,glycan array binding signal (z-score),[13],-0.27
same,glycan array binding signal (z-score),[14],-0.226
same,glycan array binding signal (z-score),[15],-0.9
same,glycan array binding signal (z-score),GlcNAc(b1-6)GalNAc,-0.198
same,glycan array binding signal (z-score),[16],0.872
same,glycan array binding signal (z-score),Kdn(a2-3)Gal(b1-3)GalNAc,0.216
same,glycan array binding signal (z-score),Kdn(a2-3)Gal(b1-3)GlcNAc,-0.251
same,glycan array binding signal (z-score),Kdn(a2-3)Gal(b1-4)Glc,0.07
same,glycan array binding signal (z-score),Kdn(a2-3)Gal(b1-4)GlcNAc,0.169
same,glycan array binding signal (z-score),[17],-0.822
same,glycan array binding signal (z-score),Kdn(a2-6)Gal(b1-4)GlcNAc,0.037
same,glycan array binding signal (z-score),[18],-0.706
same,glycan array binding signal (z-score),[19],-0.535
same,glycan array binding signal (z-score),Man(a1-2)Man(a1-3)Man,-0.584
same,glycan array binding signal (z-score),[20],-1.72
same,glycan array binding signal (z-score),[21],0.035
same,glycan array binding signal (z-score),[22],0.254
same,glycan array binding signal (z-score),[23],-0.217
same,glycan array binding signal (z-score),[24],-0.301
same,glycan array binding signal (z-score),[25],-1.04
same,glycan array binding signal (z-score),Man(a1-3)[Man(a1-6)]Man,0.087
same,glycan array binding signal (z-score),[26],0.039

# For convenience, part of the list above.
binder,measurement,setting,value
B1,glycan array binding signal (z-score),[6],0.262
same,glycan array binding signal (z-score),GlcNAc(b1-3)GalNAc,0.754
same,glycan array binding signal (z-score),GlcNAc(b1-3)Man,0.659
same,glycan array binding signal (z-score),[7],1.62
same,glycan array binding signal (z-score),[8],-0.285
same,glycan array binding signal (z-score),[9],1.5
same,glycan array binding signal (z-score),[10],-0.159
same,glycan array binding signal (z-score),GlcNAc(b1-4)GlcNAc,0.8
same,glycan array binding signal (z-score),[11],-1.12
